The values below come from patent US20260217845A1.

Amino acid sequences for entries named in this document (tags omitted). A change or cut given only in a name is not applied to a line headed by its entry.
UniProt P20333: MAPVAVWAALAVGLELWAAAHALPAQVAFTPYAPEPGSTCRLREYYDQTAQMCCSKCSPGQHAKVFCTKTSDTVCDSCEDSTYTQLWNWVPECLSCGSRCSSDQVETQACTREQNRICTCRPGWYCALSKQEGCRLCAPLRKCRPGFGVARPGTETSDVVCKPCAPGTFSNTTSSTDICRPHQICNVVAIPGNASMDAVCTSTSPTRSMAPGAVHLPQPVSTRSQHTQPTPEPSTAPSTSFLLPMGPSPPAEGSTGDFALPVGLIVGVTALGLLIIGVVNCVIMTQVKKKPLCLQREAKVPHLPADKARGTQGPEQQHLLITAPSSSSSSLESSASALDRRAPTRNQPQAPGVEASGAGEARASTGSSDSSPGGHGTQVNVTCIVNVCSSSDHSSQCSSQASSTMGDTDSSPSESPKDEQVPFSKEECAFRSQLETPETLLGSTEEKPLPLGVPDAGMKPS

Experiment [1] addresses TNFR2 stably expressed on HEK293 NF-κB reporter (Luc) cells (human) (UniProt P20333). Briefly: flow cytometry on TNFR2 expressing HEK cells, with or without MR2-1 (legend of FIG. 11).
For experiment [2] the target is unchanged. Briefly: flow cytometry on TNFR2 expressing HEK cells (clone 25), with or without MR2-1 (5 or 10 µg/ml), anti-His detection.

No constants are given. Whether binding was seen depends on the method and setting. Some binding calls cover weakened binding; strength is not graded here.

B1: N1277hu1 (VHH, not shown: small tags and cut ends)
VHH: EVQLLESGGGLVQPGGSLRLSCAASGLTLDYYAIGWFRQAPGKEREGVSCISTSDGSTYYADSVKGRFTISRDNAKNTVYLQMNSLRPEDTAVYYCATPGPYTYCAPYGSSWSRGYDYWGQGTQVTVSS
On to B1, for which the binding entry in experiment [1] and in experiment [2] was “binds” throughout.

B2: N1425hu1 (VHH, not shown: small tags and cut ends)
VHH: EVQLVESGGGLVQPGGSLRLSCAVSGASLSRNAIIWVRQAPGKGLEWVSTIYDDGETYYADSVKGRFTISRDLAKNTVYLQMNSLRAEDTAVYYCAGSAFDFWGQGTQVTVSS
As to B2, the binding result in experiment [1] and in experiment [2] was “binds” throughout.

B3: N1402hu1 (VHH, not shown: small tags and cut ends)
VHH: EVQLLESGGGLVQPGGSLRLSCAASGRTFSSLFMGWFRQAPGKEREFVASIRYPGLITNYADSAKGRFTISRDSAKNTVYLQMNSLRPEDTGVYYCAAAPTGRAFNYWGQGTQVTVSS
For B3, the binding entry in experiment [1] and in experiment [2] was “binds” throughout.
